PubChem BioAssay AID624297 (National Center for Advancing Translational Sciences (NCATS), 2012)
Screen size: about 340,000 compounds; about 6,200 (1.8%) were called active. Inconclusive means that the source gave no clear call. Such entries were picked first, then a sample of the others. Calls come from the whole dose curve; as a rule, active = well fitted activation curve with a large enough effect; inconclusive = small, poorly fitted or top-dose-only effect; inactive = no such curve, though single readings can be large or run the other way. A potency beside an inconclusive call is a rough fit, not a confirmed value.

Test: A quantitative high throughput screen for small molecules that induce DNA re-replication in SW480 colon adenocarcinoma cells. For re-replication activation: % of control where 0% means no effect. Note: nearly all actives have a fitted effect of over 55% in size.
Details: Hoechst DNA content imaging, 48 h; re-replication activation: at 46.1 µM (top of the series) unless noted
How it was run: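 Image-based DNA-content assay: after two days of treatment, nuclei were labelled with the DNA dye Hoechst and imaged, and hits were compounds raising the count of nuclei showing high fluorescence intensity.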
Potency is the fitted concentration of half-maximal effect.

Compound | Potency | re-replication activation
CCn1c(/C=C/c2ccc(O)c(O)c2)nc2ccccc2c1=O | inconclusive: 29.1 µM [activator, single point] | –
COc1ccc(-n2nc([N+](=O)[O-])c(=NC3CCN(Cc4ccccc4)CC3)n2O)cc1 | inconclusive: 16.4 µM [activator, single point] | –
CN(C)c1ccc(C=Cc2cnccn2)cc1 | inconclusive: 18.4 µM [activator, single point] | –
Cn1c(N)c(C(=O)COC(=O)c2ccccc2C(=O)c2ccc(Cl)c([N+](=O)[O-])c2)c(=O)n(C)c1=O | inconclusive: 2.82 µM [activator, full curve, poor fit] | –
Cc1ccc(NC(=O)Nc2c(Cl)cccc2Cl)cn1 | inconclusive: 20.6 µM [activator, single point] | –
Cc1cc2nc(N3CCN(C(=O)c4cccs4)CC3)sc2cc1C | inactive | –
O=C(c1ccc(F)cc1)c1cc2ccc(O)cc2oc1=O | inconclusive: 1.84 µM [activator, full curve] | –
CCOc1ccc(N(Cc2cc3ccc(C)cc3[nH]c2=O)S(=O)(=O)c2ccccc2)cc1 | active: 20.6 µM | –
CCCCNC(=O)C1CC(c2ccc(C(F)(F)F)cc2)=NO1 (stereo unspecified) | inconclusive: 0.82 µM [activator, full curve, poor fit] | –
COc1cccc(CNC(=O)C(=O)NCCC2CCCCN2S(=O)(=O)c2ccc(C)cc2)c1 (stereo unspecified) | active: 15.8 µM | –
CC(C)CCOP(=O)(c1ccc(N(C)C)cc1)C(O)c1ccccc1F (stereo unspecified) | inactive | –
C/C(=N\Nc1ccc([N+](=O)[O-])cc1)c1ccco1 | inconclusive: 20.6 µM [activator, partial curve, poor fit] | –
CN(CC(=O)NCc1ccccc1Cl)S(=O)(=O)c1ccc2c(c1)n(C)c(=O)c(=O)n2C | inactive | –
O=c1[nH]ncc(N2CCCCCC2)c1Cl | inconclusive: 20.6 µM [activator, single point] | –
COc1ccc(C(=O)c2ccc(CC(=O)O)s2)cc1 | inconclusive: 32.6 µM [activator, partial curve, poor fit] | –
CC(OC(=O)c1cccc(-n2cnnn2)c1)C(=O)NCc1ccccc1 (stereo unspecified) | inactive | –
CCCCNS(=O)(=O)c1ccc2nc(SCC(=O)Nc3ccccc3)[nH]c2c1 | inconclusive: 2.31 µM [activator, partial curve, poor fit] | –
COc1ccc(NS(=O)(=O)c2cc(NC(=O)c3ccccc3)ccc2N2CCOCC2)cc1 | inconclusive: 29.1 µM [activator, single point] | –
Cc1c(C(=O)NCCS(=O)(=O)N2CCN(c3ccccc3F)CC2)cccc1[N+](=O)[O-] | inconclusive: 9.2 µM [activator, partial curve, poor fit] | –
O=C(Nc1ccc2ccccc2c1)c1ccccc1[N+](=O)[O-] | inconclusive: 29.1 µM [activator, single point] | –
C[n+]1ccc(/C=N/Nc2nc(Cl)c(C#N)c(Cl)c2Cl)cc1 | inconclusive: 0.116 µM [activator, full curve, poor fit] | –
CCOC(=O)C1CCN(C(=O)Cn2nc(C)n3nc(-c4ccc(CC)cc4)cc3c2=O)CC1 | inconclusive: 6.51 µM [activator, single point] | –

Part of the list above in order of heavy-atom count, low to high:
Compound | Potency | re-replication activation
O=c1[nH]ncc(N2CCCCCC2)c1Cl | inconclusive: 20.6 µM [activator, single point] | –
C[n+]1ccc(/C=N/Nc2nc(Cl)c(C#N)c(Cl)c2Cl)cc1 | inconclusive: 0.116 µM [activator, full curve, poor fit] | –
CC(C)CCOP(=O)(c1ccc(N(C)C)cc1)C(O)c1ccccc1F (stereo unspecified) | inactive | –
CCOc1ccc(N(Cc2cc3ccc(C)cc3[nH]c2=O)S(=O)(=O)c2ccccc2)cc1 | active: 20.6 µM | –

For convenience, 2 of the compounds above.
Compound | Potency | re-replication activation
CCOc1ccc(N(Cc2cc3ccc(C)cc3[nH]c2=O)S(=O)(=O)c2ccccc2)cc1 | active: 20.6 µM | –
CCCCNC(=O)C1CC(c2ccc(C(F)(F)F)cc2)=NO1 (stereo unspecified) | inconclusive: 0.82 µM [activator, full curve, poor fit] | –

Further entries:

Compound | Potency | re-replication activation
CCOc1cc(/C=C2\C(=O)N(Cc3ccc(C)cc3)C(C)=C2C(=O)OC)ccc1O | inconclusive: 29.1 µM [activator, single point] | –
CCN(CC(=O)NC(C)(C)C)Cc1nc2c(Br)cc(Br)cc2c(=O)[nH]1 | inconclusive: 29.1 µM [activator, single point] | –
COC(=O)N/N=C/c1c(C)nn(-c2cccc(Cl)c2)c1Cl | inconclusive: 29.1 µM [activator, single point] | –
CCOc1cc(/C=C2\C(=O)N(Cc3ccco3)C(C)=C2C(=O)OC)ccc1O | inconclusive: 18.4 µM [activator, single point] | –
CN(C)c1ccc(NC2=C(Cl)C(=O)c3ccccc3C2=O)cc1 | active: 2.91 µM | –
Cc1cc[n+](C2=C([O-])c3ccccc3C(=O)/C2=N\S(=O)(=O)c2cccs2)cc1C | inconclusive: 1.64 µM [activator, partial curve, poor fit] | –
CCOC(=O)C1=NNC(C(=O)c2ccc(Cl)cc2)C1c1ccccc1 (stereo unspecified) | inactive | –
CC(C)(C)OC(=O)C[C@@H]1C/C=C\C[C@H](CC(=O)N[C@H](CO)Cc2ccccc2)C(=O)N[C@@H](Cc2c[nH]c3ccccc23)COC1=O | inactive | –
Cc1ccc(NC(=O)/C=C/c2ccc(Cl)cc2)nc1 | inactive | –
C#CCOCCOCCOCCNc1nc(N2CCN(C(=O)[C@H](CCC(=O)O)n3cc(CN)nn3)CC2)nc(N2CCN(C(=O)[C@H](CCC(=O)O)n3cc([C@@H](N)[C@H](C)CC)nn3)CC2)n1 | inconclusive: 8.2 µM [activator, partial curve, poor fit] | –
COc1ccc(CCNC(=O)/C=C/c2ccc(S(=O)(=O)N3CCOCC3)cc2)cc1 | active: 4.11 µM | –
COc1ccccc1N1CCN(/N=C\C(Br)=C\c2ccccc2)CC1 | inconclusive: 29.1 µM [activator, single point] | –
Cc1ccc(N(CC(=O)N2CCCCCC2)S(C)(=O)=O)cc1Cl | – | inconclusive: 28.9% [activator]
Cc1cc(C)n2nc(SCC(=O)N3CCCC(C)C3)nc2n1 (stereo unspecified) | inactive | –
CN(C(=O)COC(=O)C12CC3CC(CC(Cl)(C3)C1)C2)c1ccccc1 | inconclusive: 29.1 µM [activator, single point] | –
OCc1ccccc1SSc1ccccc1CO | inconclusive: 18.4 µM [activator, single point] | –
O=S(=O)(c1ccccc1)N(CC1CO1)c1cccc2ccccc12 (stereo unspecified) | active: 20.6 µM | –
O=C(N/N=C\c1ccc(-c2cccc(Cl)c2)o1)C(=O)NC1CCCC1 | inactive | –
Cc1n[nH]c(C)c1S(=O)(=O)N1CCN(C2CCCCC2)CC1 | inactive | –
CSCCOC(=O)c1[nH]c2c(c1C)C(=O)CC(c1ccco1)C2 (stereo unspecified) | active: 1.3 µM | –
N=c1c2c(ncn1CCCO)Oc1c(ccc3ccccc13)C2c1ccccc1 (stereo unspecified) | inconclusive: 29.1 µM [activator, single point] | –
Cc1ccc([C@@H]2[C@@H]3C(=O)N(c4ccccc4)C(=O)[C@@H]3[C@]3(C)C(=O)N(Cc4ccc(-c5ccccc5)cc4)CC(=O)N23)o1 | inconclusive: 29.1 µM [activator, partial curve, poor fit] | –

Compound | Potency | re-replication activation
CCOC(=O)C(NC(C)=O)C(=O)Nc1ccc(C)cc1C (stereo unspecified) | inactive | –
COc1cccc(-c2nn(C)c3sc(C(=O)N4CCN(c5ccccn5)CC4)cc23)c1 | inconclusive: 29.1 µM [activator, single point] | –
C=CC(=O)Nc1ccc(CN2C(=O)N(c3c(Cl)c(OC)cc(OC)c3Cl)Cc3cnc(NCCCCN(CC)CC)nc32)cc1 | inconclusive: 5.17 µM [activator, partial curve, poor fit] | –
CCC(=O)N(Cc1cc2ccccc2[nH]c1=O)C(C)C | – | inactive: -0.639% [at 9.22 µM]
O=C(NC1=NCCS1)c1cccc(F)c1 | inconclusive: 6.51 µM [activator, single point] | –
[O-][n+]1c(/C=C/c2ccccc2)ccc2ccccc21 | active: 18.4 µM | –
O=C(NNc1c(F)c(F)cc(F)c1F)c1ccc(Cl)nc1 | inconclusive: 23.1 µM [activator, single point] | –
O=C(Nc1nc(-c2ccccn2)cs1)c1ccc([N+](=O)[O-])o1 | inconclusive: 29.1 µM [activator, single point] | –
COc1cc(C)c(NC(=O)C2CCN(S(=O)(=O)c3cccs3)CC2)cc1OC | inconclusive: 9.2 µM [activator, partial curve, poor fit] | –
COc1ccc(CCN2CC(C(=O)Nc3cc(F)ccc3F)CC2=O)cc1OC (stereo unspecified) | inactive | –
O=C(Cn1cnc2ccc(Cl)cc2c1=O)NC1CCS(=O)(=O)C1 (stereo unspecified) | inconclusive: 0.92 µM [activator, partial curve, poor fit] | –
Cc1ccc(N2C(=N)/C(=C3/Nc4ccccc4S3)C(c3ccccc3)C2=O)cc1 (stereo unspecified) | inactive | –
COc1ccc(Cl)cc1C(=O)Nc1cccc(-c2ccc3nncn3n2)c1 | inactive | –
CC(=O)[C@@]1(O)CCC2C3C=CC4=CC(=O)CC[C@]4(C)C3CC[C@@]21C (stereo partly specified) | inactive | –
CCCCCc1cc(=O)oc2c(C(CCN3CCCCC3)c3ccc4c(c3)OCO4)c(OC)cc(OC)c12 (stereo unspecified) | inconclusive: 0.651 µM [activator, single point] | –
O=C(O)c1ccc(NC(=O)c2cccc(C(=O)Nc3ccc(C(=O)O)cc3)n2)cc1 | – | inconclusive: 31.7% [activator]
CCOC(=O)CN1C(=O)S/C(=C/c2ccc(OCc3ccc(C(=O)O)cc3)cc2)C1=O | inactive | –
Cc1ccccc1C(=O)N1CCC(C(=O)Nc2ccc(S(=O)(=O)N3CCCCC3)cc2)CC1 | inconclusive: 29.1 µM [activator, single point] | –
COc1ccc(-c2[nH]c(-c3ccccc3)nc2SCC(=O)Nc2nccs2)cc1 | inconclusive: 0.366 µM [activator, full curve, poor fit] | –
NNC(=O)COc1ccc(C(F)(F)F)cc1 | inconclusive: 23.1 µM [activator, single point] | –
O=C(Nc1ccc(C(=O)N2CCOCC2)cc1)c1cccc(Br)c1 | inconclusive: 29.1 µM [activator, partial curve, poor fit] | –
O=C(c1ccc(F)cc1)c1ccc(OCC(=O)N2CCOCC2)cc1 | inactive | –
